Test results as given in the supplement of paper PMC8256030.
Where “and” joins values, the source holds several entries; their conditions need not be identical. Equal entries are not always repeated. Structures can show the parent of a compound that is named as a salt. Some of the results follow. This data set is noisy: repeats of one test often differ as much as different tests do.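 HEK293T cells were given each compound shortly before transfection with a reporter in which red mCherry is followed by the SARS-CoV-2 frameshift element and then GFP in the −1 frame, so GFP appears only after frameshifting.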

Each compound was assayed on HEK293T (assay: percent viability (nuclei count) relative to control; higher = more viable cells). Conditions: 10 µM; 24 h.

Row | Compound | percent viability
1 | CC(c1cc2ccccc2s1)N(O)C(N)=O (configuration not stated) [zileuton] | 257% and 142%
2 | Nc1ccc(C(=O)O)c(O)c1 [4-Aminosalicylic acid] | 146%
3 | C=N[C@@H](C(=O)N[C@@H]1C(=O)N2[C@@H]1SC(C)(C)[C@@H]2C(=O)O)c1ccccc1 | 103%
4 | O=C(O)c1ccccc1C(=O)Nc1ccc(S(=O)(=O)Nc2nccs2)cc1 [phthalylsulfathiazole] | 254%
5 | CC(C)c1cc(C(C)C)c(CC(=O)NS(=O)(=O)Oc2c(C(C)C)cccc2C(C)C)c(C(C)C)c1 [avasimibe] | 45.5%
6 | C=CCN1CCCC1CNC(=O)c1cc2nn[nH]c2cc1OC (configuration not stated) [alizapride] | 197%
7 | CC(=O)O[C@@]12CO[C@@H]1C[C@H](O)[C@@]1(C)C(=O)[C@H](O)C3=C(C)[C@@H](OC(=O)[C@H](O)[C@@H](NC(=O)OC(C)(C)C)c4ccccc4)C[C@@](O)([C@@H](OC(=O)c4ccccc4)[C@H]21)C3(C)C | 30.3%
8 | CN1CCC(=C2c3ccccc3CCn3c(C=O)cnc32)CC1 [alcaftadine] | 291%
9 | O=C(O)CCc1nc2ccccc2[nH]1 [procodazole] | 60.1%
10 | CCCCCC1C(=O)N2C=C(c3ccccc3)c3ccccc3N2C1=O (configuration not stated) [cinnopentazone] | 94.2%
11 | CC(=O)O[C@H]1Cc2ccccc2N(C(N)=O)c2ccccc21 [Eslicarbazepine acetate] | 211%
12 | COc1cccc2c1C(=O)c1c(O)c3c(c(O)c1C2=O)C[C@@](O)(C(=O)CO)C[C@@H]3O[C@H]1C[C@H](N)[C@H](O)[C@H](C)O1 [Doxorubicin·HCl] | 6.15%
13 | CNCC(O)c1ccc(OC(=O)C(C)(C)C)c(OC(=O)C(C)(C)C)c1 (configuration not stated) [dipivefrine] | 364%
14 | O=C1CN2Cc3c(ccc(Cl)c3Cl)N=C2N1 [anagrelide] | 67.4%
15 | Nc1ccc(S(=O)(=O)Nc2ncccn2)cc1 [sulfadiazine sodium] | 185%
16 | O=C(O)Cc1cn(-c2ccccc2)nc1-c1ccc(Cl)cc1 [lonazolac] | 143%

Row | Compound | percent viability
17 | C[C@H]1O[C@@H](O[C@H]2CC[C@@]3(C)[C@H](CC[C@@H]4[C@@H]3C[C@@H](O)[C@]3(C)[C@@H](C5=CC(=O)OC5)CC[C@]43O)C2)C[C@H](O)[C@@H]1O[C@H]1C[C@H](O)[C@H](O[C@H]2C[C@H](O)[C@H](O[C@@H]3O[C@H](CO)[C@@H](O)[C@H](O)[C@H]3O)[C@@H](C)O2)[C@@H](C)O1 [deslanoside] | 5.41%
18 | CC(C)=CCC/C(C)=C/CC/C(C)=C/CSc1ccccc1C(=O)O [salirasib] | 151%
19 | O=C(NCCS(=O)(=O)O)c1cccs1 [taurosteine] | 276%
20 | CN1CCC(=C2c3ccccc3CCc3sccc32)CC1 [pizotifen] | 197%
21 | COc1c(N2C[C@@H]3CCCN[C@@H]3C2)c(F)cc2c(=O)c(C(=O)O)cn(C3CC3)c12 | 292%
22 | CN1CCC(OC(c2ccccc2)c2ccccc2)CC1 [diphenylpyraline] | 147%
23 | OCCN1CCN(CCCN2c3ccccc3Sc3ccc(Cl)cc32)CC1 [perphenazine] | 423%
24 | OC[C@H]1O[C@@H](O[C@@H]2[C@@H](CO)OC(O)(CO)[C@H]2O)[C@H](O)[C@@H](O)[C@H]1O (mixture of isomers) [lactulose] | 175%
25 | NC(=O)N1CCC(CC(=O)N2CCC([C@H]3c4ncc(Br)cc4CCc4cc(Cl)cc(Br)c43)CC2)CC1 [lonafarnib] | 127%
26 | CCCc1nn(C)c2c(=O)[nH]c(-c3cc(S(=O)(=O)N4CCN(C)CC4)ccc3OCC)nc12 | 218%
27 | CC#CCC(C)[C@H](O)/C=C/[C@@H]1[C@H]2c3cccc(CCCC(=O)O)c3O[C@H]2C[C@H]1O (mixture of isomers) [beraprost] | 168%
28 | O=C1CN2Cc3c(ccc(Cl)c3Cl)N=C2N1 | 372%
29 | COc1cc(NC(=O)Nc2cccc(CNC(=O)O[C@H]3CCOC3)c2)ccc1-c1cnco1 [merimepodib] | 145%
30 | COC(=O)c1ccc2c(C(=Nc3ccc(N(C)C(=O)CN4CCN(C)CC4)cc3)c3ccccc3)c(O)[nH]c2c1 [Nintedanib] | 359%
31 | CO/N=C(\C(=O)N[C@@H]1C(=O)N2C(C(=O)O)=C(CSc3nc(=O)c(O)nn3C)CS[C@H]12)c1csc(N)n1 [Rocephin] | 175%
32 | Cc1cccc(C)c1OCC(=O)N[C@@H](Cc1ccccc1)[C@@H](O)C[C@H](Cc1ccccc1)NC(=O)[C@H](C(C)C)N1CCCNC1=O [lopinavir] | 250%

Copied from the list.
percent viability with CN1CCC(OC(c2ccccc2)c2ccccc2)CC1 [diphenylpyraline] is entered as 147%
percent viability with O=C1CN2Cc3c(ccc(Cl)c3Cl)N=C2N1 is entered as 372%
percent viability with COC(=O)c1ccc2c(C(=Nc3ccc(N(C)C(=O)CN4CCN(C)CC4)cc3)c3ccccc3)c(O)[nH]c2c1 [Nintedanib] is entered as 359%
